Results are given in words; binding and its absence hold for the method and conditions named. Binding seen in cells or lysates may run through a third protein. A yes stands for co-enrichment or nearness to the bait. Other partners may have been found.
Molecular target: hypoxia-inducible factor-1α (endogenous) (human (endogenous in SNU-387, SNU-387-LR, Hep-3B-LR, HuH-7-LR)) (UniProt Q16665)
Test: affinity purification with mass spectrometry; immunoprecipitation with an anti-HIF-1α antibody from whole cell lysate of SNU-387 and SNU-387-LR cells; SDS-PAGE, silver staining, LC/MS

By UniProt entry, the sequences of proteins in these tests, tags left out.
UniProt Q16665: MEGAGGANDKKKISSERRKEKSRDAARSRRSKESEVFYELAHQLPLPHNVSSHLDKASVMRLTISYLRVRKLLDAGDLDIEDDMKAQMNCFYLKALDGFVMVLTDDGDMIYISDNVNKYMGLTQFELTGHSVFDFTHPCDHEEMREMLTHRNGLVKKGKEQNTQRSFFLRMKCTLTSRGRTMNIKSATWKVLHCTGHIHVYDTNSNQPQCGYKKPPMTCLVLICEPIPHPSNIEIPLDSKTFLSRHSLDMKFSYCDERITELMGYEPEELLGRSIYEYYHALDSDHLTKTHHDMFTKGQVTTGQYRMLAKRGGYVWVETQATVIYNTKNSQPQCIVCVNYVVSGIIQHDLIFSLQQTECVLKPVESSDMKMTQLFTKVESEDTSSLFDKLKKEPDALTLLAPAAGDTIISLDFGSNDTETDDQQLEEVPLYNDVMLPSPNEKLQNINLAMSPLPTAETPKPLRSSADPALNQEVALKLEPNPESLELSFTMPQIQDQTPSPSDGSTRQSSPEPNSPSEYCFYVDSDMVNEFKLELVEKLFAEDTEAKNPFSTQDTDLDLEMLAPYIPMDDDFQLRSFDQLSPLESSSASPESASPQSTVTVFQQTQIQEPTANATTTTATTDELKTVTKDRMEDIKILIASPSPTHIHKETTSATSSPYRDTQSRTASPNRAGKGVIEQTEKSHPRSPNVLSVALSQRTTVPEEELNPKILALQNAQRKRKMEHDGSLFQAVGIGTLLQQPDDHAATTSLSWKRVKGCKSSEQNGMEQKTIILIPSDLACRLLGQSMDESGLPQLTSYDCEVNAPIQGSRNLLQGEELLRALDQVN
UniProt P35579: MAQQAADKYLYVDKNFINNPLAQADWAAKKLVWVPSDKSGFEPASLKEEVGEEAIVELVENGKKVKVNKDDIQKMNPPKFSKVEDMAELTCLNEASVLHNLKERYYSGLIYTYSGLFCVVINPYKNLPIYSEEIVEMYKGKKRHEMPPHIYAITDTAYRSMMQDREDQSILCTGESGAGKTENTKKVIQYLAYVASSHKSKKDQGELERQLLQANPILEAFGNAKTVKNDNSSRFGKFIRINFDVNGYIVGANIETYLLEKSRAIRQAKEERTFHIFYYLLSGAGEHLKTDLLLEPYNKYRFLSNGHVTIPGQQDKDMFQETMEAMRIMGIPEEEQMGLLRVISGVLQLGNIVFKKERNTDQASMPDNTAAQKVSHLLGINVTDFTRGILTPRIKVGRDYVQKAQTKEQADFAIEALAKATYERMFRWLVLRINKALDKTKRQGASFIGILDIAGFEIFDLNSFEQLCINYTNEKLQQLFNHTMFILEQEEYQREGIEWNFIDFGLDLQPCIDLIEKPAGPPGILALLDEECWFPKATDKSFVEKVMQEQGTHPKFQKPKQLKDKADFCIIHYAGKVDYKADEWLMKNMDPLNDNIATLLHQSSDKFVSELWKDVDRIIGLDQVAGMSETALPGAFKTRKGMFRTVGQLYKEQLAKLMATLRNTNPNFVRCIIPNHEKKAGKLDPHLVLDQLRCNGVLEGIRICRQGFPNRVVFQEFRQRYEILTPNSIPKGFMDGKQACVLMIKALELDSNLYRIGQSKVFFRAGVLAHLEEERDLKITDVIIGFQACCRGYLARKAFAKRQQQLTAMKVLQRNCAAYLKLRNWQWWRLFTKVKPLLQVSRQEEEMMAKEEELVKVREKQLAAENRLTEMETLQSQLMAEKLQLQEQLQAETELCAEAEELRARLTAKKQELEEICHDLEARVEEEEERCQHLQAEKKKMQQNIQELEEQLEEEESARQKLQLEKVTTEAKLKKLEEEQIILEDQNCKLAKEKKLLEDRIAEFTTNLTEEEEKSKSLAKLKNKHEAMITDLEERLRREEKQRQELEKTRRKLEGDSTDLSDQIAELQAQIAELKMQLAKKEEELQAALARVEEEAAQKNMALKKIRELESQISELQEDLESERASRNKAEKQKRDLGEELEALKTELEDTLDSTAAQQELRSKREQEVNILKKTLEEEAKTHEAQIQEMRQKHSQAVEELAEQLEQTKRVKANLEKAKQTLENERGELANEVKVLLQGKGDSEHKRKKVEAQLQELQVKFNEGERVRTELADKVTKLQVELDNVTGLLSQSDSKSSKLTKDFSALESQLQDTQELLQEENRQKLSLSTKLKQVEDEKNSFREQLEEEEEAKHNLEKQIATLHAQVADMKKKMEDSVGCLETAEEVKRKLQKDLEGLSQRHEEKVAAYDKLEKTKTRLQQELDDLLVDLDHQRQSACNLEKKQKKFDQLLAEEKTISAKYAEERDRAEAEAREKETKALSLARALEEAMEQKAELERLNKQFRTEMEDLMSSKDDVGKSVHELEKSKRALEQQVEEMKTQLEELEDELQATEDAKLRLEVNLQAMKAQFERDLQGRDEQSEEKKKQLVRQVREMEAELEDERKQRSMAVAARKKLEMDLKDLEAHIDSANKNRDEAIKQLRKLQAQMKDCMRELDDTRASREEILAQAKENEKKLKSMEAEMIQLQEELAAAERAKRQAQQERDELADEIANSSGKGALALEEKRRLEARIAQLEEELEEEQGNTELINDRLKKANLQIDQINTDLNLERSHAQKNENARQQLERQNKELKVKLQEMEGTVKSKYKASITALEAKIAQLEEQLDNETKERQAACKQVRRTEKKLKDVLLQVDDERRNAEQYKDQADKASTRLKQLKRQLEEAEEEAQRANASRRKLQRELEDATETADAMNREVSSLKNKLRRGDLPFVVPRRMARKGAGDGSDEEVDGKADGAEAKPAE

binding: binds
Substance: non-muscle myosin heavy chain 9 (endogenous) (from UniProt P35579 1-1960)

— paper PMC11412978
